The record followed here is the supplement of paper PMC3334620.

Over roughly 33,000 sequences, “E-score (-0.5 to 0.5)” has its median near -0.0059; the highest 2% begin near 0.26. This is one part of the list.

The assay addresses T1, Cin5 (UniProt P40917).
T1 sequence: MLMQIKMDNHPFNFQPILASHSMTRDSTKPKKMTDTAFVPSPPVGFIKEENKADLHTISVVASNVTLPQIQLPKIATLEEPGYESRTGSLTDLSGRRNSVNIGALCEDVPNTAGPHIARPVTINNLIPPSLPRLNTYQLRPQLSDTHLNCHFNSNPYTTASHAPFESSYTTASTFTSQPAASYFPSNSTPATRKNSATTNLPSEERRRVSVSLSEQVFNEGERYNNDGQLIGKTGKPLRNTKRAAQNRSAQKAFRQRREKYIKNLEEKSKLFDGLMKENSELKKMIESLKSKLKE
Put plainly: PBM E-score (8-mer binding enrichment) (E-score (-0.5 to 0.5)); higher = stronger / more preferred TF binding. The following applies: protein concentration: 100 nM; construct: GST-full length. Put shortly:
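Masliner-normalised scans of fluorescent anti-GST signal were the basis for scoring. That signal came from GST-tagged yeast transcription factors applied at about 100-200 nM to double-stranded universal all-10-mer Agilent arrays on fresh or once-stripped slides. Each ungapped eight-base word, pooled with its reverse complement, received an E-score from the Universal PBM Analysis Suite.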
Consider CGACTGCC, for which the “PBM E-score” value is -0.191. For the sequence ACAGCTCG, the “PBM E-score” value is -0.0204. Take GACCTTCA: the “PBM E-score” value is -0.124. Take AGCAGCCG: the “PBM E-score” value stood at 0.0345.

For AGAATGCG, the “PBM E-score” value was 0.0465. Turning to TCAGCCAA, the “PBM E-score” value is 0.104. With ATCTCGCA, the “PBM E-score” value stood at 0.00313. AAGACTAA: the “PBM E-score” value turned out to be 0.0967.

Take TGATGGAA: the “PBM E-score” value was determined as 0.0629. For ATGTCACA, the “PBM E-score” value came out at 0.213. With GTTTAAAA the figure was 0.0736; with AATGTGAG, 0.0644; with CCTTTGAC, -0.218. Turning to CTCTTGGC, the “PBM E-score” value was -0.112. With CGCGTCAC the figure was -0.109; with GCCATTGA, 0.184; with ATTTCAGG, 0.0318.

Consider CCAACTTA, for which the “PBM E-score” value was 0.0207. With GAAGCTGC the figure was -0.0618. With AAGTGACC, the “PBM E-score” value is -0.0423. With ATGTTGGC the figure was 0.059; with CGAAGGCA, -0.181. With AGGCATTG the figure was -0.051; with GGACACTA, -0.0121. In the case of AGTATCGA, the “PBM E-score” value worked out at 0.253. Consider ACACCCAA, for which the “PBM E-score” value came to 0.0796.

Consider CGACAGCG, for which the “PBM E-score” value is -0.104. As to TACGAATA, the “PBM E-score” value worked out at 0.2.

With ACAGGACA, the “PBM E-score” value was determined as 0.0466. Take CGCACTGA: the “PBM E-score” value was -0.0636. With ACCCGCCG, the “PBM E-score” value is 0.0697.

Consider GCTAAGGA, for which the “PBM E-score” value was -0.146.

As to CTAGCGTA, the “PBM E-score” value is -0.166. With AGACTAGC, the “PBM E-score” value was -0.273. With AAGTTGCT the figure was -0.00447; with ACCTGTTA, -0.145. With CTCACCGA, the “PBM E-score” value was -0.0769.

Consider GTACCTAC, for which the “PBM E-score” value is -0.182. With ACTTTTGC the figure was 0.0876; with GGTGTTCA, -0.0704. As for CGAGCTGA, the “PBM E-score” value turned out to be 0.175.

As for AGCAGCAT, the “PBM E-score” value was -0.072. With AGGTGACC the figure was -0.264; with TCCTGGAA, -0.115. With ACTACTCC the figure was 0.0696; with GATGTATA, 0.0788; with CCCACACC, 0.0203. With ACCGACGC the figure was -0.144; with AACTTCTG, -0.089; with CCGCGTAC, -0.0547. As to CCAAGGGA, the “PBM E-score” value is -0.177.

With CACGGCGA, the “PBM E-score” value amounted to 0.00899. With CCTTCACA the figure was -0.065. In the case of ACACCAAG, the “PBM E-score” value was -0.0243. With CTGACGGA the figure was -0.0319.

For AATCGAGC, the “PBM E-score” value came to 0.138. With GACTGCCC the figure was -0.188; with GATGGAGC, -0.162. Take AAGGCTAA: the “PBM E-score” value came to 0.0241.

For the sequence GAAAGCAC, the “PBM E-score” value was 0.0242. On to ATGAATCG, for which the “PBM E-score” value came out at 0.00784. With ACACTTAG the figure was 0.0487.

As to GCAGTGGA, the “PBM E-score” value came out at 0.00045. With GATTACGA the figure was 0.434; with AGCGGGAC, -0.11. With CCTGCAGA the figure was -0.0299; with GCGTCGTA, 0.0768; with AACCGCCC, -0.178. As for CACAATGC, the “PBM E-score” value was found to be 0.107. With GTTTGTAA the figure was 0.0206; with CCCAGATC, -0.26. With ACATTCTG the figure was -0.0435. With CAAGAGTC the figure was -0.207. Take GCATAACC: the “PBM E-score” value was -0.124.

Take ATACCCGG: the “PBM E-score” value was -0.133. With CACTGGGG the figure was -0.176; with CAGACAAA, 0.0571. Take ATGGAAAC: the “PBM E-score” value was 0.101.

Consider CCTAACTA, for which the “PBM E-score” value was -0.0602. With CGCTCCCA the figure was -0.204; with CTACACAA, 0.115; with GGCACCCA, -0.171.

CCTCCATA: the “PBM E-score” value is -0.147. Regarding ATAGCCGG, the “PBM E-score” value is -0.0696. With AAAGCGTT the figure was 0.0053; with CCCGTAGG, -0.149. CGAGTTAG: the “PBM E-score” value came to 0.0686.

Turning to GACAGGGA, the “PBM E-score” value was -0.113. With AGCGGGGG the figure was -0.366; with CAGGCGAA, -0.0664; with AATAGTAA, 0.27. With ATGGCCCG the figure was -0.0742; with AAGGCTCA, -0.137; with AAGTTGCC, -0.0351. With GCTGACAC the figure was 0.0863; with TACTCTAA, 0.043.

Consider AGGGGTCA, for which the “PBM E-score” value was -0.0837. For the sequence CATTCGTA, the “PBM E-score” value turned out to be 0.0849. With ACATCATG the figure was 0.0711; with CCTGCAAG, -0.215. In the case of CGAAGACA, the “PBM E-score” value is -0.0454. For AGGCACTG, the “PBM E-score” value is -0.0822. As for TGACGGAA, the “PBM E-score” value was 0.24.

For AGAGCCCT, the “PBM E-score” value was -0.266. As to AACGCGCT, the “PBM E-score” value was -0.0706. With CCACTGGC the figure was -0.0753; with GCAAATTA, 0.115; with CGGCGAGC, 0.0191. With GCGATAAA the figure was 0.14.
